Data reported in US20100061938A1, “MRI TRACKABLE DRUG DELIVERY PARTICLES, USES AND METHODS THEREOF” (EPITARGET AS, priority 2006, published 2010).

Experiment: T1 relaxation times of gel phantom samples by MR at 1.5 T, pre/post ultrasound and surfactant
Conditions: 1 mM non-liposomal control solution

| Compound | T1 (POST US+ surfactant) | T1 (POST US) | T1 (PRE US) |
| --- | --- | --- | --- |
| CNC(=O)CN(CCN(CCN(CC(=O)[O-])CC(=O)NC)CC(=O)[O-])CC(=O)[O-].[Dy+3] [DyDTPA-BMA] | 978 ms | 937 ms | 923 ms |
| CNC(=O)CN(CCN(CCN(CC(=O)[O-])CC(=O)NC)CC(=O)[O-])CC(=O)[O-].[Gd+3] [GdDTPA-BMA] | 146 ms | 139 ms | 137 ms |
